Laboratory results from patent US7083655B2, “Hair dye composition” (Kao Corporation, priority 2002, dated 2006).

Tests used:
[1] = Dyeing performance, General Formulation A (alkaline peroxide), on goat hair; conditions: undamaged white goat hair; for Colour / L / a / b / Colour of Dyed Hair: General Formulation A
[2] = Wash fade (resistance to shampoo washing, 20 washes); conditions: General Formulation A, 15 mins at 50° C., damaged (permed) white goat hair; 20 shampoo washes, 40 C water rinse
[3] = Table 2a, comparison with anionic dyes, 15 mins at 50° C.
[4] = Table 1a, pH 10, 50° C. for 15 min
[5] = Table 1a, pH 10, 50° C. for 15 min, Minolta
[6] = Table 1a, before vs after colouring

Row | Structure (SMILES) | Colour of Dyed Hair [1, 4] | L [1, 5] | a [1, 5] | b [1, 5] | Delta E [1, 6] | further results
1 | N#CC1=NN(c2ccccc2)C(=O)C1/N=N/c1ccc(C(=O)O)cc1 (stereo not drawn) [A*, reference compound] |  |  |  |  |  | Delta E ([1]; Table 2a, colour uptake): 42; Colour [1, 3]: Pale Yellow; L [1, 3]: 86; a [1, 3]: −6; b [1, 3]: 41
2 | N#CC1=NN(c2ccccc2)C(=O)C1/N=N/c1ccc(S(=O)(=O)[O-])cc1.[Na+] (stereo not drawn) [B*, reference compound] |  |  |  |  |  | Delta E ([1]; Table 2a, colour uptake): 43; Colour [1, 3]: Pale Yellow; L [1, 3]: 85; a [1, 3]: −5; b [1, 3]: 42
3 | CS(=O)(=O)c1cc([N+](=O)[O-])ccc1/N=N/c1ccc(O)c2cccc(S(=O)(=O)O)c12 [C*, reference compound] |  |  |  |  |  | Colour ([1]; Table 3a): Pale Cyan; L ([1]; Table 3a): 65; a ([1]; Table 3a): −13; b ([1]; Table 3a): 2; Delta E ([1]; Table 3a, colour uptake): 23
4 | CC(=O)Nc1cc(/N=N/c2nncs2)ccc1O [Dye D-29] | Bright Intense Red | 46 | 63 | 23 | 73 | 
5 | CCSc1nsc(/N=N/c2cc(Cl)c(O)c(NC(=O)CC)c2)n1 [Dye D-30] | Intense Magenta | 50 | 47 | −19 | 67 | 
6 | Cc1cc(/N=N/c2snc(C)c2C#N)ccc1O [Dye D-37] | Dark Intense Magenta | 29 | 50 | −4 | 76 | Delta E fade from 20 Washes [2]: 4
7 | CCSc1nsc(/N=N/c2cc(Cl)c(O)cc2Cl)n1 [Dye D-38] | Intense Red/Magenta | 44 | 57 | 6 | 70 | 
8 | COc1cc(/N=N/c2snc(C)c2C#N)ccc1O [Dye D-39] | Bright Violet | 29 | 48 | −25 | 83 | 
9 | Cc1nsc(/N=N/c2ccc(O)c(Cl)c2)c1C#N [Dye D-41] | Intense Magenta | 35 | 57 | −9 | 79 | Delta E fade from 20 Washes [2]: 2
10 | Cc1nsc(/N=N/c2cc(F)c(O)c(F)c2)c1C#N [Dye D-43] | Intense Magenta | 49 | 50 | −8 | 65 | 
11 | CC(=O)Nc1cc(/N=N/c2nncs2)c(NC(C)=O)cc1O [Dye D-46] | Bright Pink Red | 57 | 53 | 6 | 60 | 
12 | Oc1c(Cl)cc(/N=N/c2nncs2)cc1Cl [Dye D-56] | Bright Intense Orange | 64 | 43 | 35 | 51 | 
13 | CCSc1nsc(/N=N/c2c(C(C)(C)C)nn3nc(C(C)C)[nH]c23)n1 [Dye D-78] | Intense Yellow | 77 | 14 | 76 | 64 | 
14 | CCSc1nnc(/N=N/c2c(-c3ccccc3Cl)nn3nc(C(C)C)[nH]c23)s1 [Dye D-79] | Intense Gold | 77 | 12 | 74 | 61 | 
15 | CCOC(=O)c1ccc(N2C(=O)C(C#N)=C(C)C(/N=N/c3nncs3)C2=O)cc1 [Dye D-80] | Intense Yellow | 79 | 11 | 57 | 45 | 
16 | CCc1nn2c(-c3ccc(OC)c(NS(C)(=O)=O)c3)n[nH]c2c1/N=N/c1nc(C(C)C)no1 [Dye D-81] | Intense Yellow | 84 | −4 | 60 | 46 | 
17 | N#CC1=NN(c2ccccc2)C(=O)C1/N=N/c1nncs1 [Dye D-82] | Intense Yellow | 77 | 7 | 76 | 63 | Delta E ([1]; Table 2a, colour uptake): 63; Colour [1, 3]: Very Intense Yellow; L [1, 3]: 77; a [1, 3]: 7; b [1, 3]: 76
18 | N#CC(/N=N/c1nc(-c2ccccc2)ns1)C(=O)c1ccco1 [Dye D-83] | Intense Yellow-Orange | 80 | 0 | 79 | 66 | 
19 | CCSc1nnc(/N=N/c2c(C(C)(C)C)nn3nc(C(C)C)[nH]c23)s1 [Dye D-84] | Very Intense Yellow | 79 | 8 | 84 | 71 | 
20 | CO/C=N/c1cc(/N=N/c2snc3ccc(S(C)(=O)=O)cc23)cc(NC(=O)C(C)C)c1O [Dye D-85] | Intense Cyan | 47 | 26 | −33 | 66 | 
21 | CC(C)C(=O)Nc1cc(/N=N/c2snc3ccc(S(C)(=O)=O)cc23)ccc1O [Dye D-87] | Intense Blue | 47 | −5 | −24 | 55 | 
22 | CC(C)(C)c1cc(/N=N/c2nc(-c3cccc(NS(C)(=O)=O)c3)ns2)cc(NC(=O)c2cccc(NS(C)(=O)=O)c2)c1O [Dye D-89] | Bright Pink/Magenta | 53 | 44 | −16 | 63 | 
23 | CSc1nnc(/N=N/c2ccc(O)c(NC(C)=O)c2)s1 [Dye D-91] | Bight Magenta | 38 | 61 | 3 | 77 | 
24 | CC(=O)Nc1cc(/N=N/c2nc3ccccc3s2)ccc1O [Dye D-94] | Dark Magenta | 30 | 51 | −1 | 75 | 
25 | Oc1ccc(/N=N/c2nc3ccccc3s2)cc1Cl [Dye D-95] | Bright Red | 51 | 52 | 14 | 62 | 
26 | CCSc1nnc(/N=N/c2c(C(C)(C)C)nn3nc(C)[nH]c23)s1 [Dye D-96] | Bright Yellow | 78 | 11 | 88 | 75 | 
27 | CCSc1nnc(/N=N/c2ccc(O)c3cccc(/N=[SH]/OOC)c23)s1 [Dye D-97] | Dark Blue-Violet | 29 | 34 | −43 | 85 | 
28 | COO/[SH]=N/c1cccc2c(O)ccc(/N=N/c3nc4ccccc4s3)c12 [Dye D-98] | Dark Blue | 27 | 23 | −37 | 80 | 
